Measured values from PubChem BioAssay AID1224852 (National Center for Advancing Translational Sciences (NCATS), 2016).
This list was built around the results that the source calls inconclusive (neither active nor inactive); the mix of calls is not that of the screen. Calls follow the shape of the dose curve; as a rule, active = well fitted curve in the direction sought with a large enough effect (not every such curve was filed as active); inconclusive = small, poorly fitted or top-dose-only effect, or effect the other way, or another doubt; inactive = no such curve, though single readings can be large or run the other way. Where the call is inconclusive, the potency comes from a doubtful curve fit.

Assay: Cell viability assay for measurement of the protective activity of small molecules against cell death caused by Zika virus infection in human neural progenitor cells (hNPCs)
Settings: hNPC ZIKV-induced death protection, ATP luminescence, 72 h
From the text: National Center for Advancing Translational Sciences [NCATS] Johns Hopkins University School of Medicine Florida State University Assay Overview: Zika virus infection causes cell death in certain cell types including human neural progenitor cells (hNPCs), astrocytes, and astrocytoma cell line (SNB-19). This cell viability assay measures the ATP content (level) in human neural progenitor cells (hNPCs) using a luminescence readout that is proportional to viable cell numbers. Decrease in the luminescence signal after Zika virus infection indicates the cell death caused by Zika virus. Small molecule inhibitors […] the decreased luminescence signal after Zika virus infection, indicating the protective effect of that small molecule on the cell death caused by Zika virus infection. […]
Assay Protocol Summary: The medium for hNPCs consists of DMEM/F12, N2 supplement (ThermoFisher, Cat.# 17502048), NEAA (ThermoFisher, Cat. # 11140050), 2 ug/ml heparin, 2 uM cyclopamine, and B27 (ThermoFisher, Cat. # 17504044). […] The luminescence intensity of the assay plates was measured using a ViewLux plate reader (PerkinElmer). […] The percentage inhibitions of the decreased cell viability by small molecule inhibitors were then calculated.

## O=C1CCC[C@@H]2[C@H]3CCCN4CCC[C@@H](CN12)[C@@H]34
  Potency: inconclusive: 3.46 µM [activator, partial curve, poor fit]
